Consider 3 substances from US4808701A (Hoffmann-La Roche Inc., priority 1987, dated 1989).

Strings that start with PEPTIDE1 are HELM notation: dots part the residues, brackets hold end groups and non-standard residues.

The nature of the data set: general procedure: Boc solid-phase peptide synthesis; benzylhydrylamine (BHA) resin, styrene-1% divinylbenzene, 200-400 mesh (Beckman Instruments); symmetrical anhydrides of Boc-amino acids. The conditions noted are these: for cyclisation yield: cyclisation step; for step yield: late stage modification step.

“PEPTIDE1{[Tyr(SO3H)].M.G.W.E.[Thr(SO3H)].[NMePhe].[am]}$PEPTIDE1,PEPTIDE1,1:R1-5:R3$$$V2.0” came in with a cyclisation yield of 21% yield and a step yield of 94%.
In turn, “PEPTIDE1{[ac].[Tyr(SO3H)].K.G.W.M.D.[NMePhe].[am]}$PEPTIDE1,PEPTIDE1,3:R3-7:R3$$$V2.0” returned a cyclisation yield of 45% and a step yield of 87%.
Taken in the same sequence, the figures for “PEPTIDE1{[sY].M.E.W.M.[sT].[NMeF].[am]}$$$$V2.0” were 41% yield and 45%.
